Measured values reported in publication PMC9792525.
Results are given in words; binding and its absence hold for the method and conditions named. A result given as binding can be weak or reduced; the word gives no strength. Sequences can lack the tags named with a protein. For some assays here: Binding seen in cells or lysates may run through a third protein. One block for each molecule: values may come before it.

Amino acid sequences for entries named in this document (tags omitted). A change or cut given only in a name is not applied to a line headed by its entry.
UniProt A0A1P8B7J4: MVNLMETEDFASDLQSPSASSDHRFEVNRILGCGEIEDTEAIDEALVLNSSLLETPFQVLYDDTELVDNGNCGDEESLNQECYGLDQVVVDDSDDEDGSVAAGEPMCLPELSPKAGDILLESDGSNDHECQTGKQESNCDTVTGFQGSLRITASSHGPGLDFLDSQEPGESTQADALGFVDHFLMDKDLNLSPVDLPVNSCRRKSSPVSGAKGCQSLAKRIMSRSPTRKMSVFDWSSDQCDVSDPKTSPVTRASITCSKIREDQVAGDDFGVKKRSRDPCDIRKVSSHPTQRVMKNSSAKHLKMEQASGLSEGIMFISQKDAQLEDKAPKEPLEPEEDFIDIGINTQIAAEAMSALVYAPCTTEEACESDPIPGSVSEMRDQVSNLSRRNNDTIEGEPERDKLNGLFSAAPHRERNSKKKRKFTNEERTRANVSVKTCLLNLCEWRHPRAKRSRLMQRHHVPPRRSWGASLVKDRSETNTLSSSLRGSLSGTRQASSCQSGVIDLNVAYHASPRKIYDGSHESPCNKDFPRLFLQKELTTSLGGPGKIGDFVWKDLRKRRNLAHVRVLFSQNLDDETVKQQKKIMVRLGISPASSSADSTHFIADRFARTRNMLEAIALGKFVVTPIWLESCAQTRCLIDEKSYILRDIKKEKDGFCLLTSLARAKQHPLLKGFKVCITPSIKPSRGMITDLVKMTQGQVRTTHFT

How the values were obtained:
[1] = molecular target: T1, GST-fused RAD51 (Arabidopsis) (UniProt P94102); assay: pull-down; GST-RAD51 or GST immobilized on glutathione-Sepharose 4B beads, mixed with His-SUMO-XIP-M 4 h at 4 °C in 1x PBS, 0.2% NP-40, 1 mM DTT; washed with 20 mM Tris-HCl pH 8.0, 0.5 M NaCl, 0.5% NP-40; Western blot with anti-His; both purified
T1 sequence: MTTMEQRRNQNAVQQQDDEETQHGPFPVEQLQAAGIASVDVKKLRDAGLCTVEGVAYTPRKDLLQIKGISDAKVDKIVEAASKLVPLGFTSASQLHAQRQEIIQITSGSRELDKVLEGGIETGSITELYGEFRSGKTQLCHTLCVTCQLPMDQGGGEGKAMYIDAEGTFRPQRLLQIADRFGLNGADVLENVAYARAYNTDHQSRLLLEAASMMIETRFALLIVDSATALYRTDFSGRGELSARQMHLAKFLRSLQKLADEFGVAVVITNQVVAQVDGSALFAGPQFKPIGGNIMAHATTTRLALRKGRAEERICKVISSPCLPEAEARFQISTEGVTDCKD

[2] = molecular target: N-terminally Myc-tagged XIP-M (Arabidopsis); assay: co-IP; Myc-XIP-M and RAD51-FLAG co-expressed in Arabidopsis mesophyll protoplasts; lysate immunoprecipitated with anti-Myc and protein A beads; Western blot with anti-Myc and anti-FLAG

binding [1]: binds
Molecule: His-SUMO-tagged full-length XIP-M (from UniProt A0A1P8B7J4)

binding [2]: binds
B1: FLAG-tagged RAD51 (protein, UniProt P94102 1-342)
chain: T1 sequence
